The source of these data is article PMC4827801.

The chains behind the UniProt entries cited, without tags or fusion partners.
UniProt O15379: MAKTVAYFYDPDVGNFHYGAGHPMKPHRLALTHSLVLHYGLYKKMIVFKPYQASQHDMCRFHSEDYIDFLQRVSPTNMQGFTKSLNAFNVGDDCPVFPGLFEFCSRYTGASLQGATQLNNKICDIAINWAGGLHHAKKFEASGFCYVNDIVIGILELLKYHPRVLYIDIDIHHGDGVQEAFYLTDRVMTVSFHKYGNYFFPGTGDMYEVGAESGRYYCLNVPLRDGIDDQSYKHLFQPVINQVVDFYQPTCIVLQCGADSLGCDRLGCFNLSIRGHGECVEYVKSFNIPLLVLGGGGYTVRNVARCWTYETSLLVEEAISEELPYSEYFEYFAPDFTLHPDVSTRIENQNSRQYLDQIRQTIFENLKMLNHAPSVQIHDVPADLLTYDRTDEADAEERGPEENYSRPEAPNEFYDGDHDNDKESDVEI
UniProt O75376: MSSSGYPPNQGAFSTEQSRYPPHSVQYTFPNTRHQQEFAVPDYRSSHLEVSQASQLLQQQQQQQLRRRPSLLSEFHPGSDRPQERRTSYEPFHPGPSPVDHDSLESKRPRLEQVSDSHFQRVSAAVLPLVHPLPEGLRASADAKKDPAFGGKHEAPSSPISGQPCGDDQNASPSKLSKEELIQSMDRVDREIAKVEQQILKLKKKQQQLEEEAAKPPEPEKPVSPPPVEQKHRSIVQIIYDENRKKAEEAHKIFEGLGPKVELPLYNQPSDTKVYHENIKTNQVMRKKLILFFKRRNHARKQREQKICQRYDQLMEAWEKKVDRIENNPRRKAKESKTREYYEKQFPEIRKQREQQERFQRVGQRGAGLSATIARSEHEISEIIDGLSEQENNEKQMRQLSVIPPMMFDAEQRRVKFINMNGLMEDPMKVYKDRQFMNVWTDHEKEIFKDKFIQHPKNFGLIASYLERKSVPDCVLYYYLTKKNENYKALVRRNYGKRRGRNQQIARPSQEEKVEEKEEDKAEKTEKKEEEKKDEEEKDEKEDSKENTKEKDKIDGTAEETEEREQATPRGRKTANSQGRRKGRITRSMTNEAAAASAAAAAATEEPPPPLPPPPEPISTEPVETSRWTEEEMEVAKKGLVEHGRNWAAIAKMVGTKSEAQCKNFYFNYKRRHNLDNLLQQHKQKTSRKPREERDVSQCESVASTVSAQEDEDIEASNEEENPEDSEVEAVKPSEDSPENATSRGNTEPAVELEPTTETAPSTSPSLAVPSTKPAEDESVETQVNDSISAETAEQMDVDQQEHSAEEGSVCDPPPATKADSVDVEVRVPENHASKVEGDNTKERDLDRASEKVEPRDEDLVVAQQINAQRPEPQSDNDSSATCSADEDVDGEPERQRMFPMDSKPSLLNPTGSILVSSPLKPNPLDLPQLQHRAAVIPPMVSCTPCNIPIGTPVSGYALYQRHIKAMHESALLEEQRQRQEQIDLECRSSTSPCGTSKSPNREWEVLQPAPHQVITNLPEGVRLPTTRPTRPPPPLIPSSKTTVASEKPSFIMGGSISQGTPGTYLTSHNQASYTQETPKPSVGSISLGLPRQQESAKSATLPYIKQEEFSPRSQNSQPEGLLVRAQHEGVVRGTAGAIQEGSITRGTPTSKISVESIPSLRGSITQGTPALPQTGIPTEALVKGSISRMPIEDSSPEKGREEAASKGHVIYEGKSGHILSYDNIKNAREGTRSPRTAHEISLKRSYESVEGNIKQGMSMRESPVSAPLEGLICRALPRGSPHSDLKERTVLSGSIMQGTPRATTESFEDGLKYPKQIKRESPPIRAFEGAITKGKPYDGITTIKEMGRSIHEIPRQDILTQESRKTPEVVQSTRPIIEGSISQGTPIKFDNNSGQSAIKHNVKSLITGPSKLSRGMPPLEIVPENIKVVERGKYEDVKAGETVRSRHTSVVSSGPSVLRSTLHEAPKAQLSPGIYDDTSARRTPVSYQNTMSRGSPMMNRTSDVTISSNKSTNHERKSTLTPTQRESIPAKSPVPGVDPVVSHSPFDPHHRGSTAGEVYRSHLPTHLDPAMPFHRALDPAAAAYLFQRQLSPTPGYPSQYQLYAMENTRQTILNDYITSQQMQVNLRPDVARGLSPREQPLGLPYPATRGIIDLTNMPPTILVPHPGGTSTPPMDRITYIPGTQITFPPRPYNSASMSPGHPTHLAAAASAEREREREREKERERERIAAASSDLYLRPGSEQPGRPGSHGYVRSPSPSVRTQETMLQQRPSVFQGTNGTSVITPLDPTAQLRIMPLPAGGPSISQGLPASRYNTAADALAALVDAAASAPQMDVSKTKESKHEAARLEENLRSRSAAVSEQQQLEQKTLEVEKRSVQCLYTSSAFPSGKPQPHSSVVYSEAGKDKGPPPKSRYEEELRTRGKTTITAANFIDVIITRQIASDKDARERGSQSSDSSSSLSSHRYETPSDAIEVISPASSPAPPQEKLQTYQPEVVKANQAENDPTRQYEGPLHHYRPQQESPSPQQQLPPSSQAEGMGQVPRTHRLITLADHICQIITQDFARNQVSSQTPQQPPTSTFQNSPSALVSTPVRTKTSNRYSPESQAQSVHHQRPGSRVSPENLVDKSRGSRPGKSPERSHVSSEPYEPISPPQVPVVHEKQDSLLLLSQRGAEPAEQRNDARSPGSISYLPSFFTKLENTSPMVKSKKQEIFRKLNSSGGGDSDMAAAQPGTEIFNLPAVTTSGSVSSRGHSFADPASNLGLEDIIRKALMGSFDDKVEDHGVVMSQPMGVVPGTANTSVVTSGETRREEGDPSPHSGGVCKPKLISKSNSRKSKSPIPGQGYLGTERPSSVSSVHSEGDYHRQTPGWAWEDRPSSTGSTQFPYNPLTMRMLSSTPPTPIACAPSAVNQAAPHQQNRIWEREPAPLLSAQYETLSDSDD

In experiment [1] the target is HPV16 E8^E2C-HA (Human papillomavirus 16) (UniProt P0DKA0). Nature of the experiment: affinity purification with mass spectrometry; anti-HA immunoprecipitates (magnetic anti-HA beads) from 3 x 10^8 stable 293T cells expressing HA-tagged E8^E2C, against 293T/pIRES-puro empty vector control; NanoLC-MS/MS.
In experiment [2] the target is HPV31 E8^E2C-HA (Human papillomavirus 31). The experiment is described as above.

Results are given in words; binding and its absence hold for the method and conditions named. Binding seen in cells or lysates may run through a third protein. These calls come from enrichment with a bait or labelling near it, and not all partners need be listed.

Take “HDAC3 (histone deacetylase 3) (from UniProt O15379 1-428) (enzyme)”: the binding result in experiment [1] is “binds”. For the molecule NCoR (from UniProt O75376 1-2440), the binding entry in experiment [1] was “binds”.

B1: TBL1 (transducin-beta like 1) (protein, UniProt O60907 1-577)
chain: MTELAGASSSCCHRPAGRGAMQSVLHHFQRLRGREGGSHFINTSSPRGEAKMSITSDEVNFLVYRYLQESGFSHSAFTFGIESHISQSNINGTLVPPAALISILQKGLQYVEAEISINEDGTVFDGRPIESLSLIDAVMPDVVQTRQQAFREKLAQQQASAAAAAAAATAAATAATTTSAGVSHQNPSKNREATVNGEENRAHSVNNHAKPMEIDGEVEIPSSKATVLRGHESEVFICAWNPVSDLLASGSGDSTARIWNLNENSNGGSTQLVLRHCIREGGHDVPSNKDVTSLDWNTNGTLLATGSYDGFARIWTEDGNLASTLGQHKGPIFALKWNRKGNYILSAGVDKTTIIWDAHTGEAKQQFPFHSAPALDVDWQNNTTFASCSTDMCIHVCRLGCDRPVKTFQGHTNEVNAIKWDPSGMLLASCSDDMTLKIWSMKQEVCIHDLQAHNKEIYTIKWSPTGPATSNPNSNIMLASASFDSTVRLWDIERGVCTHTLTKHQEPVYSVAFSPDGKYLASGSFDKCVHIWNTQSGNLVHSYRGTGGIFEVCWNARGDKVGASASDGSVCVLDLRK
On to B1, for which the binding result in experiment [1] and in experiment [2] was “binds” throughout.
